Values from PubChem BioAssay AID1259254 (NCATS, 2017)

Assay: 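Gene knock-downs that lead to re-replication, shown by excess G2 DNA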 (primary screen)
System: human HCT116 colorectal cancer cells
Reagents: single siRNA against human genes
Duration: 3 days
Measured: 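Imaged Hoechst DNA stain sorts each cell into a cycle phase by DNA amount; per plate, G2 fraction set to 0% for non-targeting and 100% for GMNN siRNA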
Direction: G2 robust z-score: higher = more G2 cells, more excess DNA replication
Rule for the call: 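An siRNA counts as active if its G2 robust z-score lies at least 5 MADs above the screen median; here such calls match roughly 38% of GMNN control or more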
The deposit covers about 59,000 reagents; below is a part drawn at random. In the full data, about 1,550 (2.6%) got an active call. 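G2 share is only a proxy for re-replication; each gene was hit by three separate siRNAs, and active genes were retested.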 The numbers tell different reagents against one gene apart. Further read-outs or replicates are left out here. Not given: the amount of reagent.

| G2 robust z-score | call | gene | reagent |
| --- | --- | --- | --- |
| -0.5 | inactive | ZNF592 | 1 |
| 0.561 | inactive | ZNF592 | 2 |
| -0.423 | inactive | ZNF592 | 3 |
| 1.88 | inactive | TGOLN2 | 1 |
| 3.16 | inactive | TGOLN2 | 2 |
| 0.426 | inactive | TGOLN2 | 3 |
| -0.501 | inactive | LRRTM2 | 1 |
| -1.1 | inactive | LRRTM2 | 2 |
| -1.12 | inactive | LRRTM2 | 3 |
| -0.293 | inactive | MAP2K6 | 1 |
| -0.547 | inactive | MAP2K6 | 2 |
| -0.629 | inactive | MAP2K6 | 3 |
| -1.28 | inactive | ZBED1 | 1 |
| 3.82 | inactive | ZBED1 | 2 |
| 2.31 | inactive | ZBED1 | 3 |
| -1.1 | inactive | MAN2A1 | 1 |
| -0.894 | inactive | MAN2A1 | 2 |
| 3.71 | inactive | MAN2A1 | 3 |
| -0.72 | inactive | KCNB1 | 1 |
| 0.749 | inactive | KCNB1 | 2 |
| 0.246 | inactive | KCNB1 | 3 |
| -0.577 | inactive | ZNF271P | 1 |
| -1.34 | inactive | ZNF271P | 2 |
| -0.471 | inactive | ZNF271P | 3 |
| 0.0923 | inactive | ABHD16B | 1 |
| -0.616 | inactive | ABHD16B | 2 |
| 0.158 | inactive | ABHD16B | 3 |
| -0.183 | inactive | LOC729879 (retired record) | 1 |
| 2 | inactive | LOC729879 (retired record) | 2 |
| -0.11 | inactive | LOC729879 (retired record) | 3 |
| -1.14 | inactive | MAS1L | 1 |
| 0.774 | inactive | MAS1L | 2 |
| -0.994 | inactive | MAS1L | 3 |
| -0.0143 | inactive | WDR77 | 1 |
| -0.797 | inactive | WDR77 | 2 |
| 1.23 | inactive | WDR77 | 3 |
| 0.00728 | inactive | BTG2-DT | 1 |
| -0.548 | inactive | BTG2-DT | 2 |
| -1.12 | inactive | BTG2-DT | 3 |
| -0.0687 | inactive | LILRB4 | 1 |
| 0.233 | inactive | LILRB4 | 2 |
| 1.83 | inactive | LILRB4 | 3 |
| 1.33 | inactive | RALB | 1 |
| -1.19 | inactive | RALB | 2 |
| -0.798 | inactive | RALB | 3 |
| -0.677 | inactive | FGF4 | 1 |
| -0.797 | inactive | FGF4 | 2 |
| -0.125 | inactive | FGF4 | 3 |
| 2.85 | inactive | CEP68 | 1 |
| -0.586 | inactive | CEP68 | 2 |
| 0.524 | inactive | CEP68 | 3 |
| -0.89 | inactive | U2AF2 | 1 |
| -0.297 | inactive | U2AF2 | 2 |
| 0.751 | inactive | U2AF2 | 3 |
| -1.15 | inactive | GPR135 | 1 |
| -0.179 | inactive | GPR135 | 2 |
| 6.33 | active | GPR135 | 3 |
| 1.31 | inactive | CCDC188 | 1 |
| 0.846 | inactive | CCDC188 | 2 |
| 0.411 | inactive | CCDC188 | 3 |
| -2.15 | inactive | CSNK1D | 1 |
| -1.18 | inactive | CSNK1D | 2 |
| -0.779 | inactive | CSNK1D | 3 |
| 0.035 | inactive | IGF1 | 1 |
| 0.514 | inactive | IGF1 | 2 |
| -0.268 | inactive | IGF1 | 3 |
| -1.24 | inactive | TBKBP1 | 1 |
| 0.878 | inactive | TBKBP1 | 2 |
| -0.737 | inactive | TBKBP1 | 3 |
